The other results are listed elsewhere or left out.
These sequences were tested against T1, OsSMF1 (Oryza sativa, UniProt Q6ZLB0 1-436) (assay: protein-binding microarray (RPBM); PBS, 2% BSA, 51.3 ng/ul salmon testes DNA, 50 uM zinc acetate, 200 nM TF, 25 C, 1 h; high values mean tight binding). Conditions: protein: recombinant; tags: N-terminal polyhistidine and DsRed monomer fusion (pET32a); chain copies: 2; label: CyDye5-dUTP incorporated in the synthesized complementary strand; 3' TTTTT single-stranded linker to array surface; dsDNA, one strand shown.
T1 sequence: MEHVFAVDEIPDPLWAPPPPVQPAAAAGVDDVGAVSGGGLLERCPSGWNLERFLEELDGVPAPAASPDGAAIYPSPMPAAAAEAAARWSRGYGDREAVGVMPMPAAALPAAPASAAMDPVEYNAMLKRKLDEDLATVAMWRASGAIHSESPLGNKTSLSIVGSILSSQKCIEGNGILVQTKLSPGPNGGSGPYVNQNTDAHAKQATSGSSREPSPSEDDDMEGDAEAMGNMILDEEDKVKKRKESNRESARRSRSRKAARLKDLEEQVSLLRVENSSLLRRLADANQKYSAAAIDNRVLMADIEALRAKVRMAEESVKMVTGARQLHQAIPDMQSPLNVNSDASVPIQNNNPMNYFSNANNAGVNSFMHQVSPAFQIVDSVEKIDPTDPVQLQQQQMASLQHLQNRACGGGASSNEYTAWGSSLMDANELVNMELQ
Method in brief: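 Transcription factors were made in E. coli BL21-CodonPlus as N-terminal fusions to a polyhistidine tag and DsRed, then purified on Ni–NTA. After primer extension with Cy5-dUTP and blocking with 2% BSA, a custom Agilent array was exposed for 1 h at 25 °C to 200 nM protein in PBS, 2% BSA, salmon testes DNA and 50 µM zinc acetate. Washed arrays were scanned on an Axon 4000B, and the binding signal is per-feature fluorescence intensity in arbitrary units.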

Sequence	binding signal
GGAGTAGTATTTTGAGTCGCCGTCACCGTCGGCTCCCTCACGGAGTCACCTAGTGCAG	4000 fluorescence intensity (a.u.)
CAAAAGCATCTTGGAGGAGACACAGTCAGTTGGCCATACTCGGAGTCACCTAGTGCAG	3600 fluorescence intensity (a.u.)
CCCGCTCGCCGCCACCGTGTCACGCCGGCAGCCTCAGGTTCGGAGTCACCTAGTGCAG	4780 fluorescence intensity (a.u.)
TGTGTGCGGCCTGTGGGCTGGCACGACACGGCCCGGTGCGCGGAGTCACCTAGTGCAG	3340 fluorescence intensity (a.u.)
CATCTGCAGACATCCTGACATCCCCTCGGGGCAGATGGCGCGGAGTCACCTAGTGCAG	5740 fluorescence intensity (a.u.)
TGCTGGCGCCCTCCTATGCCACGTCAGCTATGCGATGCCACGGAGTCACCTAGTGCAG	21500 fluorescence intensity (a.u.)
TGTTGCATTGTCATATGTTTGGGTGGCCATGCATGAATCACGGAGTCACCTAGTGCAG	5390 fluorescence intensity (a.u.)
TTAATGTGTGTGAATGACACGGATCCCACGTATATGTTTTCGGAGTCACCTAGTGCAG	6180 fluorescence intensity (a.u.)
AATATGGAACATCAAAATCTGACACACGATTTCTTAAGGCCGGAGTCACCTAGTGCAG	4070 fluorescence intensity (a.u.)
GGCCCAAACAAGTCCTTCCCGTAATCGCGTTCGTCATCATCGGAGTCACCTAGTGCAG	5450 fluorescence intensity (a.u.)
ATCCTATCCCATATTAATTATTCTTCGAATTAGATTCGAGCGGAGTCACCTAGTGCAG	15900 fluorescence intensity (a.u.)
TACTGAAACTTGTTGCTGATTATATCTGACCCAAGTGGTTCGGAGTCACCTAGTGCAG	3320 fluorescence intensity (a.u.)
AAACAAGCCCTTATCTTTCCAACTCACTCTCGCGTTCGCGCGGAGTCACCTAGTGCAG	4190 fluorescence intensity (a.u.)
CGCGGGTTGTCACGTCGATACAGCTCCCTCGTCGAACTGGCGGAGTCACCTAGTGCAG	4000 fluorescence intensity (a.u.)
CGCGCGCGCGAGTTCCCCGAGATCCGCGAGATCTCCGTCGCGGAGTCACCTAGTGCAG	3190 fluorescence intensity (a.u.)
TTTAGATGGCGGTTTTGGCTGACGTGGCACATATGTGGCTCGGAGTCACCTAGTGCAG	33100 fluorescence intensity (a.u.)
ACCTCCCGGAGGAGGAGACCACGCCAAGCGTGGACGTGGACGGAGTCACCTAGTGCAG	4010 fluorescence intensity (a.u.)
AAAATACAATGTGATTTCAAGCTACATTCTAAGCCAAAGCCGGAGTCACCTAGTGCAG	3200 fluorescence intensity (a.u.)
CGGGTAAATAAACCAGCAGCTGCACGTTAGCACGTACGCCCGGAGTCACCTAGTGCAG	4050 fluorescence intensity (a.u.)
CGTGAGATTTGGCTGGGGAGTGGTGGTGGTGCGCCGCGGGCGGAGTCACCTAGTGCAG	3440 fluorescence intensity (a.u.)
GCGTGCTTTAGTTGGTGTCAACAATGAATTGTCAAAGCCACGGAGTCACCTAGTGCAG	3440 fluorescence intensity (a.u.)

Sequence	binding signal
CGAGCCCCGCGAGAAACAGCTATCCACGTCATCCGCGGCGCGGAGTCACCTAGTGCAG	20900 fluorescence intensity (a.u.)
TCGCCTCAAGTGCACTTAGCTTCACACTGTACACGTCATACGGAGTCACCTAGTGCAG	15700 fluorescence intensity (a.u.)
ACTTGCCACGGTGCCGCCTAACAGGCAGCCGTACCTGCCTCGGAGTCACCTAGTGCAG	3320 fluorescence intensity (a.u.)
TGTATGTCGGGTTGTCGATGATCAAGCCAGTGACACGCTTCGGAGTCACCTAGTGCAG	4000 fluorescence intensity (a.u.)
AACTGGCACCTATAGACCTTTTCCCACCTCTGCGGGTTAACGGAGTCACCTAGTGCAG	36500 fluorescence intensity (a.u.)
TTAGTGGCGCCTGTTTTCTTGTAACGGTGTGACCTGTTGCCGGAGTCACCTAGTGCAG	29300 fluorescence intensity (a.u.)
AATTTGTGCATATGTGAGCGTGGTGTGATGTGTCGTGGGTCGGAGTCACCTAGTGCAG	6090 fluorescence intensity (a.u.)
GTGATGTCTTATTGACATGACATCATAGACACTACTTATACGGAGTCACCTAGTGCAG	3960 fluorescence intensity (a.u.)
GGTCGCCGGATCGCGGGAGGGAGGGAGGGAGGGAGGGAGGCGGAGTCACCTAGTGCAG	5460 fluorescence intensity (a.u.)
CTCTCCTCTCCTCTTGGTGATGACTGATCGATGACCACCACGGAGTCACCTAGTGCAG	4680 fluorescence intensity (a.u.)
CTGCAGTACAACAAACATGATAGTACTTGAAATCATCTTGCGGAGTCACCTAGTGCAG	27400 fluorescence intensity (a.u.)
CGAAGGAGGCGTGGGACTCGGTGAAGAAGATGCGAGCCGGCGGAGTCACCTAGTGCAG	4950 fluorescence intensity (a.u.)
TCCTTGCACTGTTGCTGCTGCTGATGCTTCACGTCGTCCGCGGAGTCACCTAGTGCAG	3310 fluorescence intensity (a.u.)
GCCTTGGCGCTGACGCTGAGAGCCCCGAGCCGTAACAAACCGGAGTCACCTAGTGCAG	3340 fluorescence intensity (a.u.)
GGGGATCCTGGTGAGCATCCACATCCTCTTTCTGATTCATCGGAGTCACCTAGTGCAG	4650 fluorescence intensity (a.u.)
CGGCTGCTGGCTATATTATGTCCACATCATTTTACAGCTACGGAGTCACCTAGTGCAG	6030 fluorescence intensity (a.u.)
CTCGGATCGACCAAGCTGCTCCGCATCTGTATGACGATGACGGAGTCACCTAGTGCAG	3900 fluorescence intensity (a.u.)
AATGTATGAACAAGTGAAACAAAACATATCCATGAGTCGACGGAGTCACCTAGTGCAG	4200 fluorescence intensity (a.u.)
GCCCTCGCCTCTGACCAGCGGGCCCCACACGTCAGCCAGACGGAGTCACCTAGTGCAG	9920 fluorescence intensity (a.u.)
GGCCCAACTAGGCCCACCCTTCCGACACGTGTCCCTCCCCCGGAGTCACCTAGTGCAG	14500 fluorescence intensity (a.u.)
GCTATTTATTAAGAATATATAGGACTCTAGCTACCAGATACGGAGTCACCTAGTGCAG	35100 fluorescence intensity (a.u.)

A stretch from further up, as a working copy:
Sequence	binding signal
GCCTTGGCGCTGACGCTGAGAGCCCCGAGCCGTAACAAACCGGAGTCACCTAGTGCAG	3340 fluorescence intensity (a.u.)
GGGGATCCTGGTGAGCATCCACATCCTCTTTCTGATTCATCGGAGTCACCTAGTGCAG	4650 fluorescence intensity (a.u.)

— article PMC7819943, “Rice protein-binding microarrays: a tool to detect cis-acting elements near promoter regions in rice”
